Assay results published in patent US11319321B2, “[1,2,4]triazolo[1,5-a]pyrimidine compounds as PDE2 inhibitors” (Janssen Pharmaceutica NV, priority 2016, dated 2022).
At least one compound was matched to its structure with a doubt left.

Test system: hPDE3B
Experiment: In vitro assay PDE3 (SPA, 3H-cAMP)
Type: biochemical, human
Conditions: 0.4 μM cAMP substrate; in % (unit assumed)

SMILES | hPDE3B Emax
C[C@@H]1CCN(Cc2cccc(OC(F)(F)F)c2)C[C@H]1c1cc(C(F)F)nc2ncnn12 [Compound 24] | 31
C[C@@H]1CCN(Cc2ccc(C(F)(F)F)cc2)C[C@H]1c1cc(C(F)F)nc2ncnn12 [Compound 39] | 46
